Results reported in the supplement of paper PMC7661543.
± gives the standard deviation of the averaged measurements. Differences between knockout arms are mostly noise.

Tests used:
HCC-38 = test: relative cell number vs DMSO control (72 h) (% of DMSO); higher = less growth inhibition (more cells)
Method: (§1)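 QMAP-Seq: a pool of 5 breast cancer cell lines (ZR-75-1, SKBR3, HCC-38, MDA-MB-231, BT-20), each carrying 12 doxycycline-inducible Cas9 sgRNA perturbations (11 knockouts plus non-targeting sgNT), was treated with compounds for 72 h at four 10-fold doses (10 nM-10 uM or 1 nM-1 uM range). Barcodes were amplified and sequenced, and cell number was interpolated from 293T spike-in standard curves. The result is expressed as % of the median of DMSO wells. Two biological replicates.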

MDA-MB-231 = test: as above
Method: as §1

CCOC(=O)CCNc1cc(N2CCc3ccccc3CC2)nc(-c2ccccn2)n1 [GSKJ4]
relative cell number
Conditions	HCC-38	MDA-MB-231
sgRNA knockout: sgATF3, 10 nM	102 ± 12	121 ± 4.7
sgRNA knockout: sgATF3, 100 nM	101 ± 1.2	107 ± 27
sgRNA knockout: sgATF3, 1000 nM	104 ± 7	92.5 ± 12
sgRNA knockout: sgATF3, 10000 nM	56.7 ± 2.4	30.4 ± 2.9
sgRNA knockout: sgATF4, 10 nM	98 ± 11	100 ± 3.9
sgRNA knockout: sgATF4, 100 nM	109 ± 1.1	126 ± 50
sgRNA knockout: sgATF4, 1000 nM	96.4 ± 6.8	87.9 ± 22
sgRNA knockout: sgATF4, 10000 nM	58.4 ± 2.4	51.5 ± 15
sgRNA knockout: sgATF6, 10 nM	104.5 ± 0.13	125 ± 7.5
sgRNA knockout: sgATF6, 100 nM	123 ± 4.8	121 ± 20
sgRNA knockout: sgATF6, 1000 nM	84 ± 21	78.6 ± 39
sgRNA knockout: sgATF6, 10000 nM	67.7 ± 5.2	35.1 ± 4.2
sgRNA knockout: sgATG7, 10 nM	99.8 ± 13	88.6 ± 36
sgRNA knockout: sgATG7, 100 nM	117 ± 4.1	118 ± 3.7
sgRNA knockout: sgATG7, 1000 nM	95.2 ± 14	74.7 ± 1.1
sgRNA knockout: sgATG7, 10000 nM	55 ± 0.6	35.8 ± 0.47
sgRNA knockout: sgERN1, 10 nM	102 ± 7.2	88.7 ± 44
sgRNA knockout: sgERN1, 100 nM	111 ± 4.6	103 ± 8.2
sgRNA knockout: sgERN1, 1000 nM	96 ± 15	96.7 ± 27
sgRNA knockout: sgERN1, 10000 nM	52.7 ± 2.4	40.9 ± 3.8
sgRNA knockout: sgHSF1, 10 nM	108 ± 19	92.7 ± 5.3
sgRNA knockout: sgHSF1, 100 nM	106 ± 22	121 ± 11
sgRNA knockout: sgHSF1, 1000 nM	111 ± 19	85.3 ± 27
sgRNA knockout: sgHSF1, 10000 nM	70.6 ± 3.2	34.2 ± 1.2
sgRNA knockout: sgHSF2, 10 nM	96.1 ± 5.6	97.8 ± 14
sgRNA knockout: sgHSF2, 100 nM	118 ± 3.5	131 ± 3.2
sgRNA knockout: sgHSF2, 1000 nM	97.6 ± 17	96.4 ± 14
sgRNA knockout: sgHSF2, 10000 nM	52.98 ± 0.25	47.2 ± 12
sgRNA knockout: sgKEAP1, 10 nM	92.9 ± 11	77.9 ± 18
sgRNA knockout: sgKEAP1, 100 nM	125.9 ± 0.63	112 ± 22
sgRNA knockout: sgKEAP1, 1000 nM	113 ± 15	88.5 ± 8.8
sgRNA knockout: sgKEAP1, 10000 nM	55.4 ± 13	49.4 ± 1.9
sgRNA knockout: sgNFE2L2, 10 nM	94 ± 20	99.8 ± 14
sgRNA knockout: sgNFE2L2, 100 nM	105 ± 1.2	104 ± 12
sgRNA knockout: sgNFE2L2, 1000 nM	93.1 ± 15	91.4 ± 30
sgRNA knockout: sgNFE2L2, 10000 nM	53.2 ± 3.5	39.5 ± 2.2
sgRNA knockout: sgSLC35F2, 10 nM	109 ± 1.7	98.4 ± 13
sgRNA knockout: sgSLC35F2, 100 nM	104 ± 5.4	100.6 ± 0.89
sgRNA knockout: sgSLC35F2, 1000 nM	96.4 ± 16	102 ± 20
sgRNA knockout: sgSLC35F2, 10000 nM	56.4 ± 4.5	33.7 ± 10
sgRNA knockout: sgXBP1, 10 nM	91.8 ± 8.2	110 ± 22
sgRNA knockout: sgXBP1, 100 nM	106 ± 18	128 ± 7.1
sgRNA knockout: sgXBP1, 1000 nM	95.6 ± 16	103 ± 12
sgRNA knockout: sgXBP1, 10000 nM	58.3 ± 5.2	39.3 ± 2.8

COc1cc2ncnc(Nc3ccc(F)c(Cl)c3)c2cc1OCCCN1CCOCC1 [Gefitinib]
relative cell number
Conditions	HCC-38	MDA-MB-231
sgRNA knockout: sgATF3, 10 nM	92.6 ± 4.5	109 ± 1.1
sgRNA knockout: sgATF3, 100 nM	108 ± 7.3	111 ± 70
sgRNA knockout: sgATF3, 1000 nM	113 ± 9.1	113 ± 27
sgRNA knockout: sgATF3, 10000 nM	87.6 ± 7.1	89.6 ± 5.7
sgRNA knockout: sgATF4, 10 nM	87.2 ± 1.9	123 ± 10
sgRNA knockout: sgATF4, 100 nM	99.4 ± 3.3	101 ± 38
sgRNA knockout: sgATF4, 1000 nM	110 ± 30	85.4 ± 46
sgRNA knockout: sgATF4, 10000 nM	83.1 ± 2.1	71.7 ± 3.1
sgRNA knockout: sgATF6, 10 nM	88.2 ± 9.2	112 ± 9.8
sgRNA knockout: sgATF6, 100 nM	92.4 ± 1.6	110 ± 34
sgRNA knockout: sgATF6, 1000 nM	107 ± 7.4	82.4 ± 18
sgRNA knockout: sgATF6, 10000 nM	88.9 ± 19	75.7 ± 5.5
sgRNA knockout: sgATG7, 10 nM	80.3 ± 4.9	92 ± 6
sgRNA knockout: sgATG7, 100 nM	92.1 ± 20	91.4 ± 24
sgRNA knockout: sgATG7, 1000 nM	113 ± 18	107 ± 31
sgRNA knockout: sgATG7, 10000 nM	92.1 ± 9.5	82.7 ± 26
sgRNA knockout: sgERN1, 10 nM	91.6 ± 4.2	95.1 ± 14
sgRNA knockout: sgERN1, 100 nM	115 ± 2.5	96.4 ± 29
sgRNA knockout: sgERN1, 1000 nM	109 ± 7.2	96 ± 1.4
sgRNA knockout: sgERN1, 10000 nM	97.8 ± 7.8	69.003 ± 0.015
sgRNA knockout: sgHSF1, 10 nM	95.6 ± 6.4	79.4 ± 14
sgRNA knockout: sgHSF1, 100 nM	106 ± 9.5	94.5 ± 16
sgRNA knockout: sgHSF1, 1000 nM	104 ± 15	97.9 ± 23
sgRNA knockout: sgHSF1, 10000 nM	106 ± 5.3	81.4 ± 6.7
sgRNA knockout: sgHSF2, 10 nM	98.8 ± 18	98.9 ± 9.6
sgRNA knockout: sgHSF2, 100 nM	107 ± 2.8	96.6 ± 35
sgRNA knockout: sgHSF2, 1000 nM	105 ± 3.1	101 ± 1.1
sgRNA knockout: sgHSF2, 10000 nM	91.8 ± 3.6	68.5 ± 14
sgRNA knockout: sgKEAP1, 10 nM	102 ± 14	86.9 ± 3
sgRNA knockout: sgKEAP1, 100 nM	116 ± 29	99.7 ± 24
sgRNA knockout: sgKEAP1, 1000 nM	89.9 ± 16	91.9 ± 11
sgRNA knockout: sgKEAP1, 10000 nM	91.1 ± 2.3	94.3 ± 2.4
sgRNA knockout: sgNFE2L2, 10 nM	76.5 ± 5.4	95.3 ± 5.5
sgRNA knockout: sgNFE2L2, 100 nM	102.7 ± 0.14	116 ± 38
sgRNA knockout: sgNFE2L2, 1000 nM	113 ± 20	84.3 ± 12
sgRNA knockout: sgNFE2L2, 10000 nM	86.6 ± 7.8	71.7 ± 8
sgRNA knockout: sgSLC35F2, 10 nM	89.2 ± 5.7	103 ± 2.4
sgRNA knockout: sgSLC35F2, 100 nM	110 ± 2.5	104 ± 22
sgRNA knockout: sgSLC35F2, 1000 nM	98.5 ± 5	102 ± 3.8
sgRNA knockout: sgSLC35F2, 10000 nM	96.5 ± 1.5	66.6 ± 22
sgRNA knockout: sgXBP1, 10 nM	86.3 ± 4.8	100 ± 12
sgRNA knockout: sgXBP1, 100 nM	109 ± 5.5	112 ± 18
sgRNA knockout: sgXBP1, 1000 nM	109 ± 10	113 ± 17
sgRNA knockout: sgXBP1, 10000 nM	88.382 ± 0.076	81.6 ± 1.3
